In article PMC9592618:
These are yes or no findings as the source states them, for the method shown. In cells and extracts the contact can be indirect. Some entries that bind do so weakly or less than the wild type. For some of these results: Tags and fused reporters may be left off the sequences shown.

The chains behind the UniProt entries cited, without tags or fusion partners. Where a name states a change or a piece, a line headed by the entry shows the natural chain unless it says otherwise.
UniProt O00443: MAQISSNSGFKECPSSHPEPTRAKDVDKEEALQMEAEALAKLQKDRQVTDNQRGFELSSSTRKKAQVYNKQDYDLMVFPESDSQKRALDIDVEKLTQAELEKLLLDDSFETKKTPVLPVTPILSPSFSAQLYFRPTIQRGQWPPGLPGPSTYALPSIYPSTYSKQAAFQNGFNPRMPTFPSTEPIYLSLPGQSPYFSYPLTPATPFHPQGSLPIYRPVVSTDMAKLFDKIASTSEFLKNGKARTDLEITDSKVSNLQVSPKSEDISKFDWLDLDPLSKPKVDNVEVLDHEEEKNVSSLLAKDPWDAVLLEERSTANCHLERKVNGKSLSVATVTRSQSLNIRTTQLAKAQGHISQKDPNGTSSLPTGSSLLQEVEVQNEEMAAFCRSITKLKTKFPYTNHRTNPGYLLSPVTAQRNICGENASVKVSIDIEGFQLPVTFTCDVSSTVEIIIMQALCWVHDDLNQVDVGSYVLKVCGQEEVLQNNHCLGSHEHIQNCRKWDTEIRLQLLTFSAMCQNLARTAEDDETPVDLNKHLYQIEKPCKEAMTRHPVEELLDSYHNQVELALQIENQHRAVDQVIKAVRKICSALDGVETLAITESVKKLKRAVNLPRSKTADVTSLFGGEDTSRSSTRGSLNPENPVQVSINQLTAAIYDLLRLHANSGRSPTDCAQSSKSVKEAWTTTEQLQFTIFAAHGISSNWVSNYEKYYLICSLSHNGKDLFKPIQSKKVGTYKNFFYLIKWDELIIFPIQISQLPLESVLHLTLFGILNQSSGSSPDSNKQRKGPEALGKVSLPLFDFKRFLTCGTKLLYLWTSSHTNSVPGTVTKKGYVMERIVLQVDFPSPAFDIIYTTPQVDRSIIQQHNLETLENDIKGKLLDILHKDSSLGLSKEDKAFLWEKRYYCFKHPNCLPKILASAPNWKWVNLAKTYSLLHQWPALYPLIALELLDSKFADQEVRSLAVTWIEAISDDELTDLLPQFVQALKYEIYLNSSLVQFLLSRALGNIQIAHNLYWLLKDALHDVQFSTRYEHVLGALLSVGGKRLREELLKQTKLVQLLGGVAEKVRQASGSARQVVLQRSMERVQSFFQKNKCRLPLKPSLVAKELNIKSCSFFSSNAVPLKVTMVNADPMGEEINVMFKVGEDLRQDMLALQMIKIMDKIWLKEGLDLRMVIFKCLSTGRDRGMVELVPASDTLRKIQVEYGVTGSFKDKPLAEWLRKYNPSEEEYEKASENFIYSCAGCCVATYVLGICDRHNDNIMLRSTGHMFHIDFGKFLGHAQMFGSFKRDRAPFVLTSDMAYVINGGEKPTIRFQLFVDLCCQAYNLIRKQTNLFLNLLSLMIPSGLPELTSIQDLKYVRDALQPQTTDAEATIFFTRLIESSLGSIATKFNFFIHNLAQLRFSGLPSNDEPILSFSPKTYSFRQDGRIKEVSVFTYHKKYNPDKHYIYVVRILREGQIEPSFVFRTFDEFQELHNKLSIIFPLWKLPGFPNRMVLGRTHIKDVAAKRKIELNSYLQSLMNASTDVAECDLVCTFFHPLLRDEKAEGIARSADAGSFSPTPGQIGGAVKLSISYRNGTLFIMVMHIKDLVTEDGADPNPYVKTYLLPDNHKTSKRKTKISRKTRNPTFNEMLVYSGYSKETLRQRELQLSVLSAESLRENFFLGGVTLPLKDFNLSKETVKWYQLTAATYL
UniProt P05556: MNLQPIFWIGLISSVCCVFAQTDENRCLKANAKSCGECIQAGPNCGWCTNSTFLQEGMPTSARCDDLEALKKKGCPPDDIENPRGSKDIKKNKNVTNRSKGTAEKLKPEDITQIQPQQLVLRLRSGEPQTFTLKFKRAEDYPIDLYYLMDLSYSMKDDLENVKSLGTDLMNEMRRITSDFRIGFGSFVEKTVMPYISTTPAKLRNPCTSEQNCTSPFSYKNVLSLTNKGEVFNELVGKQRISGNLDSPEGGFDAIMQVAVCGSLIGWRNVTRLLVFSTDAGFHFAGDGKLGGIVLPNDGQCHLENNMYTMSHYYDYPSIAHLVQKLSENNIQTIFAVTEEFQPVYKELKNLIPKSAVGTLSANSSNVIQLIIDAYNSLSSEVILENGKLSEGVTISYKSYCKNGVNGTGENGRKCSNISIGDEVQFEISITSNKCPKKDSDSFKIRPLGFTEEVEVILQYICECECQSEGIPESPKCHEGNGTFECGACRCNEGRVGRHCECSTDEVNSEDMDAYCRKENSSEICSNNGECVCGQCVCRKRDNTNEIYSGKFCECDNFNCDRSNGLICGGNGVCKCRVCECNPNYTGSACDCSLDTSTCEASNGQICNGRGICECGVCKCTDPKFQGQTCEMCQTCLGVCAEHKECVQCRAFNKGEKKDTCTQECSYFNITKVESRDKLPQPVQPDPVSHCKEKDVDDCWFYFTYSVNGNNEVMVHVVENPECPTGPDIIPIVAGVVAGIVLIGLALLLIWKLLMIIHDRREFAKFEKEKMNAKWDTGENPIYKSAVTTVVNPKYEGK
UniProt P62491: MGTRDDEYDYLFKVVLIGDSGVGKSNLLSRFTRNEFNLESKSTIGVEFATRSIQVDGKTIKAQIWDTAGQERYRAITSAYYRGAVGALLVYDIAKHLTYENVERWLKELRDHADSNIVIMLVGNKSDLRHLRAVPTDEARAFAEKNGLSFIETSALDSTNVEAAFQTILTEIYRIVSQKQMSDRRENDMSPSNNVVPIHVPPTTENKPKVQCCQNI

Columns and labels:
[1] = biological target: T1, wild-type KIF15 (KIF15-WT), Flag-tagged (UniProt Q9NS87); assay: co-IP; PC cells transfected with Flag-KIF15 wild type or mutants; anti-Flag (legends of Fig. 4F, 5E, 6G: 'Flag or HA') immunoprecipitation, western blot; with or without overexpressed PI3K-C2α or SIRT1
T1 sequence: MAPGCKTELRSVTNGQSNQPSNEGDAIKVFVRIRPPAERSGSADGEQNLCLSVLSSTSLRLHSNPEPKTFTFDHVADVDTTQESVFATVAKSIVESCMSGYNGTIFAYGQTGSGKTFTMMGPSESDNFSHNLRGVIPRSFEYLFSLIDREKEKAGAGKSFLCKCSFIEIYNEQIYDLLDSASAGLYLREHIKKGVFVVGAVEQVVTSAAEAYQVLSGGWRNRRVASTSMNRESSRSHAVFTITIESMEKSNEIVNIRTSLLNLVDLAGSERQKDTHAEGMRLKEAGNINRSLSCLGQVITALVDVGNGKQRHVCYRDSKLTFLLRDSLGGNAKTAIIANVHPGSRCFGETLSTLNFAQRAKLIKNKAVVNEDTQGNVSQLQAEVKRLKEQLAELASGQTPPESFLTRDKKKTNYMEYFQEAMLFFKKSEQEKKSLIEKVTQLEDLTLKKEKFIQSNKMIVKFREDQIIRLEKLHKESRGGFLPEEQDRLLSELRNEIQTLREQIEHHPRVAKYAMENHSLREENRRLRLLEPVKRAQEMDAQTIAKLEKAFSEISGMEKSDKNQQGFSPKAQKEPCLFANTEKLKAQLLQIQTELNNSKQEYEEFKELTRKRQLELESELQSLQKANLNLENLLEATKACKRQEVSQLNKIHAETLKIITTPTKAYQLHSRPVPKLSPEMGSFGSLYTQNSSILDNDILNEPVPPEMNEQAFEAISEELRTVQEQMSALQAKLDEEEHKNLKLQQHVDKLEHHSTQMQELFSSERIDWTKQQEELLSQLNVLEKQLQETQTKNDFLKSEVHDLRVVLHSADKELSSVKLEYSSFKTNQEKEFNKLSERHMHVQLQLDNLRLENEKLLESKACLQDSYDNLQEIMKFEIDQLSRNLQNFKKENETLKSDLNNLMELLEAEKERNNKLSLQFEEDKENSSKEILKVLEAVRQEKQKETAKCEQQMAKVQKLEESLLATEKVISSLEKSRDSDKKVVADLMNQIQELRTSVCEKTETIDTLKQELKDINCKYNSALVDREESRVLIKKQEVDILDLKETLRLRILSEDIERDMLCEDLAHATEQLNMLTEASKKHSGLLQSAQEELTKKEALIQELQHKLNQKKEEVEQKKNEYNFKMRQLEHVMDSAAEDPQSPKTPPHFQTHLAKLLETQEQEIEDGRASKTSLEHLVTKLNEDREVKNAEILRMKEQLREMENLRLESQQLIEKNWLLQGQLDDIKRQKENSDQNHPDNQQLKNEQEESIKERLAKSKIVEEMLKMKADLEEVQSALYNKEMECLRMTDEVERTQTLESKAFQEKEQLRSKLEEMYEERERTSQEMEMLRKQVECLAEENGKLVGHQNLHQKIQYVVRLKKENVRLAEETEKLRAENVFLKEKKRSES

[2] = biological target: T2, kinesin family 15 (KIF15) (human (endogenous in PANC-1 / MIA PaCa-2)) (UniProt Q9NS87); assay: co-IP; PC cell lysates with primary antibody or IgG overnight at 4 °C, affinity agarose beads 4 h, five washes; western blot
T2 sequence: T1 sequence

| Substance | binding [1] | binding [2] |
| --- | --- | --- |
| PI3K-C2α (from UniProt O00443 1-1686) | binds | binds |
| integrin β1 (from UniProt P05556 21-798) (receptor) | binds | binds |
| RAB11A (from UniProt P62491 1-216) | binds | binds |
| PI3K-C2α, overexpressed (from UniProt O00443 1-1686) | binds | – |
